Literature values as cited in patent US20090312688A1, “IONTOPHORESIS DRUG DELIVERY FORMULATION PROVIDING ACCEPTABLE SENSATION AND DERMAL ANESTHESIA” (Vyteris, Inc., priority 2005, published 2009).
Some entries share one result that the patent states for a list of compounds.

System: sensory nerves
Conditions: without epinephrine

| Compound | duration of effects |
| --- | --- |
| CCN(CC)CCOC(=O)c1ccc(N)cc1 [procaine] | less than 2 hr |
| CCCCN1CCCCC1C(=O)Nc1c(C)cccc1C (stereo not drawn) [bupivacaine] | 3 to 4 h |
| CCN(CC)CCOC(=O)c1ccc(N)cc1Cl [chloroprocaine] | less than 2 hr |
| CCCNC(C)C(=O)Nc1ccccc1C (stereo not drawn) [prilocaine] | less than 2 hr |
| CCCN(CC)C(CC)C(=O)Nc1c(C)cccc1C (stereo not drawn) [etidocaine] | 3 to 4 h |
| Cc1cccc(C)c1NC(=O)C1CCCCN1C (stereo not drawn) [mepivacaine] | 3 to 4 h |
